Publication PMC3022755, “HP1 Recruits Activity-Dependent Neuroprotective Protein to H3K9me3 Marked Pericentromeric Heterochromatin for Silencing of Major Satellite Repeats” (PLoS ONE, 2011)
No constants are given. Whether binding was seen depends on the method and setting. Binding seen in cells or lysates may run through a third protein. Some binding calls cover weakened binding; strength is not graded here. Sequences can lack the tags named with a protein. Each block holds one binder with its values, some of them ahead of it.

Experiments:
[1] = biological target: T1, YFP-ADNP, wild type, stably and inducibly expressed in NIH3T3 cells (UniProt Q9Z103); test: co-IP; YFP-ADNP fusion proteins or YFP immunoprecipitated with anti-GFP antibodies from nuclear extracts of stable NIH3T3 cell lines; western blot with anti-ADNP antibody
T1 sequence: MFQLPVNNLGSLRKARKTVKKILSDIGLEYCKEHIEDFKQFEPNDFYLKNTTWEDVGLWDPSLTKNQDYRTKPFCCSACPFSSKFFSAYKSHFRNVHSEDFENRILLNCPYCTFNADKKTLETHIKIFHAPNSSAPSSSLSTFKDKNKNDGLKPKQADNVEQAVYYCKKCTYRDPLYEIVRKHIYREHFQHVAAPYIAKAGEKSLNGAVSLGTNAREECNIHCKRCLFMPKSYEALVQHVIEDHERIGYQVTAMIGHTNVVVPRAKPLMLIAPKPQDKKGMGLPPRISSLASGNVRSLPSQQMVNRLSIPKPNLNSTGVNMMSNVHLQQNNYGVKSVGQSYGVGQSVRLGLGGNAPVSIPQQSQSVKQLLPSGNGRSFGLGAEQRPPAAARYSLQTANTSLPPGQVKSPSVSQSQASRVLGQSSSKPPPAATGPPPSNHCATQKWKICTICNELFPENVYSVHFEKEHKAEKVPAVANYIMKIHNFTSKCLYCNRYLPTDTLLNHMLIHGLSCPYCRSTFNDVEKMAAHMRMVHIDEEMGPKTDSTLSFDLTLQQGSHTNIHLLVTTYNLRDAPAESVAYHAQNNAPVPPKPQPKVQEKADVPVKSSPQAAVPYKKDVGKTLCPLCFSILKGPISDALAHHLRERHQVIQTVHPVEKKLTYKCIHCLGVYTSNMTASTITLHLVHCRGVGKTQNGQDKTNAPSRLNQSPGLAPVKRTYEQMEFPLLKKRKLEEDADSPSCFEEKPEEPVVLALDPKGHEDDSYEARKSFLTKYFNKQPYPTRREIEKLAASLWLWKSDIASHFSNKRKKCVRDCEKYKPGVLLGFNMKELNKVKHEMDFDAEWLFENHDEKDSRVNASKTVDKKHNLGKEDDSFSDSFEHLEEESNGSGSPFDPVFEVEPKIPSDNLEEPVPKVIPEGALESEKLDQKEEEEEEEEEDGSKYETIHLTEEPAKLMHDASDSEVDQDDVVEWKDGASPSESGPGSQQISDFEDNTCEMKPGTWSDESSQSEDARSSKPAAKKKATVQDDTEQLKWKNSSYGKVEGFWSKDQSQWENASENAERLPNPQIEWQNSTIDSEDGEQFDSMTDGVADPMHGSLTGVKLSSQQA

[2] = biological target: H3unmod. peptide, …-biotin; test: pull-down; H3 peptides on magnetic beads, TNT reticulocyte lysate with FLAG-tagged ADNP (wt or point mutants) together with added recombinant His6-HP1 (α, β, γ or β W170A); anti-FLAG and anti-His6 western blots; only the target purified
[3] = biological target: H3unmod. peptide, …-biotin; test: pull-down; H3K9me3 and unmodified H3 peptides on magnetic beads, TNT reticulocyte lysate with FLAG-tagged ADNP, no HP1 added; anti-FLAG western blot; only the target purified

- binding [1]: binds
B1: ADNP, endogenous in NIH3T3 nuclear extract (protein, UniProt Q9Z103 1-1108)
chain: T1 sequence

- binding [2]: no binding
- binding [3]: no binding
B2: FLAG-tagged ADNP, wild type, expressed in TNT reticulocyte extract (protein, UniProt Q9Z103 1-1108)
chain: T1 sequence
